“And” between values parts separate entries of the source, which are not always exact repeats. Equal entries are not always repeated. ± gives the standard deviation of the averaged measurements. The list shows a part of the results. Repeats in this data set agree poorly, so a single value says little.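 U2OS cells expressing ACE2 were combined with U2OS cells expressing full-length spike, and imaging quantified fusion as the fraction of nuclei displaying both cell types' fluorescent markers. Non-toxic compounds with a fusion z-score under -3, i.e., over three standard deviations below the plate's DMSO wells, are called inhibitory hits.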
Tested on: U2OS ACE2 x SARS-CoV-2 spike co-culture
Test: cell-cell fusion (fraction fused) z-score vs plate DMSO control; higher = more fusion
Conditions: 30 µM; 5 h; toxicity class: non-toxic, passed QC

Row | Structure (SMILES) | cell-cell fusion (z-score)
1 | CC1=NCCC2c3ccc(O)cc3NC12 (configuration not stated) | inactive: 2.92
2 | Cl.c1ccc([C@H]2CN3CCSC3=N2)cc1 [Levamisole hydrochloride] | inactive: 2.96
3 | C#C[C@]1(O)CCC2C3CCC4=C(CCC(=O)C4)C3CC[C@@]21C (some centres not stated) | inactive: 0.5
4 | Cl.NCCCC(N)(C(=O)O)C(F)F (configuration not stated) | inactive: 0.766
5 | CC(C)=CCC1=C(O)C(=O)c2ccccc2C1=O | inactive: 0.349
6 | CC[C@@H](C(N)=O)N1CCCC1=O [Levetiracetam] | inactive: 2.91
7 | CN1CC[C@H](c2c(O)cc(O)c3c(=O)cc(-c4ccccc4Cl)oc23)[C@H](O)C1.Cl [Flavopiridol hydrochloride] | inactive: 1.06
8 | CN1CC[C@H](c2c(O)cc(O)c3c(=O)cc(-c4ccccc4Cl)oc23)[C@H](O)C1.Cl [Flavopiridol HCl] | inactive: 0.723
9 | CC(CN1c2ccccc2Sc2ccccc21)N(C)C (configuration not stated) [Promethazine] | inactive: 1.4
10 | COc1ccc(-c2coc3cc(O)ccc3c2=O)c(OC)c1 | inactive: 1.91
11 | CC(C)C(=O)Nc1ccc([N+](=O)[O-])c(C(F)(F)F)c1 [Flutamide (Eulexin)] | inactive: 2.04
12 | COc1cc([C@@H]2c3cc4c(cc3C(OC3O[C@@H]5COC(C)O[C@H]5[C@H](O)[C@H]3O)C3COC(=O)[C@@H]32)OCO4)cc(OC)c1O (some centres not stated) | inactive: 2.52
13 | O=C(O)COC(=O)Cc1ccccc1Nc1c(Cl)cccc1Cl | inactive: 1.46
14 | CCN(CCO)CCCOc1ccc2c(Nc3cc(CC(=O)Nc4cccc(F)c4)n[nH]3)ncnc2c1 [Barasertib (AZD1152-HQPA)] | inactive: 2.36
15 | O=c1oc2ccccc2c(O)c1Cc1c(O)c2ccccc2oc1=O [Dicumarol] | inactive: 1.39
16 | Cc1ccc([N+](=O)[O-])cc1S(=O)(=O)N(C)/N=C/c1cnc2ccc(Br)cn12.Cl | inactive: 1.39
17 | COc1ccc(C[C@@H](C)NC[C@H](O)c2ccc(O)c(NC=O)c2)cc1.COc1ccc(C[C@H](C)NC[C@@H](O)c2ccc(O)c(NC=O)c2)cc1.O=C(O)/C=C/C(=O)O [Formoterol Hemifumarate] | inactive: -0.748
18 | CCCN1CCC[C@@H](c2cccc(S(C)(=O)=O)c2)C1.Cl | inactive: 2.69
19 | Br.CN1CCC[C@@H]1Cc1c[nH]c2ccc(CCS(=O)(=O)c3ccccc3)cc12 [Eletriptan HBr] | inactive: 2.96
20 | O=C(O)[C@H](O)[C@@H](O)C(=O)O.c1cnc2cc3c(cc2n1)[C@@H]1CNC[C@H]3C1 [Varenicline] | inactive: 3.43
21 | Cc1ccc(=O)n(-c2ccccc2)c1 [Pirfenidone] | inactive: 3.73
22 | CC(C)=CCCC1(C)C=Cc2c(O)c3c(c(CC=C(C)C)c2O1)OC12C(=CCCC1C(C)(C)O[C@@]2(C/C=C(\C)C(=O)O)C(=O)O)C3=O (some centres not stated) | inactive: 2.52
23 | Cl.O=C(c1ccc(OCCN2CCCCC2)cc1)c1c(-c2ccc(O)cc2)sc2cc(O)ccc12 [Raloxifene hydrochloride] | inactive: 4.7
24 | CC[C@H](C)C(=O)O[C@H]1CCC=C2C=C[C@H](C)[C@H](CC[C@@H]3C[C@@H](O)CC(=O)O3)[C@H]21 [Mevastatin] | inactive: 1.48

3 entries picked at random from the list so far, as already listed:
Row | Structure (SMILES) | cell-cell fusion (z-score)
20 | O=C(O)[C@H](O)[C@@H](O)C(=O)O.c1cnc2cc3c(cc2n1)[C@@H]1CNC[C@H]3C1 [Varenicline] | inactive: 3.43
24 | CC[C@H](C)C(=O)O[C@H]1CCC=C2C=C[C@H](C)[C@H](CC[C@@H]3C[C@@H](O)CC(=O)O3)[C@H]21 [Mevastatin] | inactive: 1.48
4 | Cl.NCCCC(N)(C(=O)O)C(F)F (configuration not stated) | inactive: 0.766

An excerpt of these results, in markdown.

| Row | Structure (SMILES) | cell-cell fusion (z-score) |
| --- | --- | --- |
| 16 | Cc1ccc([N+](=O)[O-])cc1S(=O)(=O)N(C)/N=C/c1cnc2ccc(Br)cn12.Cl | inactive: 1.39 |
| 17 | COc1ccc(C[C@@H](C)NC[C@H](O)c2ccc(O)c(NC=O)c2)cc1.COc1ccc(C[C@H](C)NC[C@@H](O)c2ccc(O)c(NC=O)c2)cc1.O=C(O)/C=C/C(=O)O [Formoterol Hemifumarate] | inactive: -0.748 |

Further records follow:

Row | Structure (SMILES) | cell-cell fusion (z-score)
25 | NC(=O)Cc1cccc(C(=O)c2ccccc2)c1N [Nepafenac] | inactive: 2.11
26 | Nc1ccn([C@H]2CC[C@@H](CO)O2)c(=O)n1 [Zalcitabine] | inactive: 2.91
27 | CC(C)COC(=O)OCN1C(=O)CN(CCN2CC(=O)N(COC(=O)OCC(C)C)C(=O)C2)CC1=O [Sobuzoxane] | inactive: 1.23
28 | Cc1ccc(-n2nc(C(C)(C)C)cc2NC(=O)Nc2ccc(OCCN3CCOCC3)c3ccccc23)cc1 [BIRB 796 (Doramapimod)] | -3.77 ± 3.3
29 | CNC1(C)C2CCC(C2)C1(C)C.Cl (configuration not stated) | inactive: 0.957
30 | CNC1(C)C2CCC(C2)C1(C)C.Cl (configuration not stated) [Mecamylamine hydrochloride] | inactive: 1.42
31 | O=C([O-])c1cc(=O)c2c(OCC(O)COc3cccc4oc(C(=O)[O-])cc(=O)c34)cccc2o1.[Na+].[Na+] | inactive: 1.34
32 | C[N+]12CC[C@@]34c5ccccc5N5C(=O)CC6OCC=C(C1)[C@H](CC32)[C@@H]6C54.[I-] (some centres not stated) | inactive: 2.59
33 | COc1cc(OC)c2c(=O)c(-c3ccccc3OC)coc2c1 | inactive: 4.57
34 | Cc1ccc(C(=O)c2ccc(CC(=O)[O-])n2C)cc1.[Na+] | inactive: 1.83
35 | O=C(Nc1ccc([N+](=O)[O-])cc1Cl)c1cc(Cl)ccc1O [Niclosamide] | inactive: 2.42
36 | O=C(/C=C/c1ccc(O)c(O)c1)OCCc1ccccc1 | active: -4.58
37 | Cn1cc(-c2ccc3nnc(C(F)(F)c4ccc5ncccc5c4)n3n2)cn1 | inactive: 0.499
38 | COc1ccc(-c2coc3cc(O)ccc3c2=O)c(O)c1O | inactive: 2.11
39 | N#CC(C#N)=C/C(N)=C(/C#N)c1cc(O)c(O)c(O)c1 [Tyrphostin 51] | inactive: 5.08
40 | COc1ccc2[nH]c3c(c2c1)CCNC3 [6-Methoxy-1,2,3,4-tetrahydro-9H-pyrido[3,4b] indole] | inactive: 2.55
41 | COc1cc(Cc2cnc(N)nc2N)cc(OC)c1OC [Trimethoprim] | inactive: 2.75
42 | O=c1[nH]c2ccccc2n1CCN1CCN(c2cccc(C(F)(F)F)c2)CC1 [Flibanserin] | inactive: 1.2
43 | COC(=O)[C@@H](N)Cc1ccc(O)c(O)c1.Cl [L-3,4-Dihydroxyphenylalanine methyl ester hydrochloride] | inactive: 1.05
44 | Cl.NNC(N)=O [Semicarbazide hydrochloride] | inactive: 1.56
45 | CS(=O)c1ccc(-c2nc(-c3ccc(F)cc3)c(-c3ccncc3)[nH]2)cc1 (configuration not stated) | inactive: 1.55 and inactive: 0.144
46 | Cl.NCCc1ccc(O)c(O)c1 [Dopamine hydrochloride] | inactive: 1.09
47 | CC(=N)NCCCCC(N)C(=O)O.Cl (stereo in doubt) [L-N6-(1-Iminoethyl)lysine hydrochloride] | inactive: 3.01
48 | CC(=O)OC1CCC2C3CCc4cc(O)ccc4C3CCC12C (configuration not stated) | inactive: 2.32

Row | Structure (SMILES) | cell-cell fusion (z-score)
49 | O=C(O)c1cc(O)c2cccc(O)c2n1 | inactive: 2.8
50 | C=C1[C@H](CO)[C@@H](O)C[C@@H]1n1cnc2c(=O)nc(N)[nH]c21.O [Entecavir hydrate] | inactive: 1.19
51 | O=C(O)[C@@H](S)[C@@H](S)C(=O)O [Succimer] | inactive: -0.86
52 | C[C@]12[C@H](O)CC3C(CC[C@@H]4C[C@@H](O)CC[C@]34C)[C@@]1(O)CC[C@@H]2C1=CC(=O)OC1 (some centres not stated) | inactive: 0.415
53 | CCC1(CC)C(=O)C=CNC1=O | inactive: 1.23
54 | O=c1[nH]c(=O)n([C@H]2C[C@H](O)[C@@H](CO)O2)cc1I [Dendrid] | inactive: 4.03
55 | O=c1cc(N2CCOCC2)oc2c1ccc1ccccc12 | inactive: 0.867
56 | COc1ccc2cc([C@@H](C)C(=O)O)ccc2c1 [(R)-Naproxen] | inactive: 2.9
57 | Cc1ncsc1CCCl.Cl [Chlormethiazole hydrochloride] | inactive: 2.38
58 | CN(C(=O)CCCOc1ccc2[nH]c(=O)ccc2c1)C1CCCCC1 [Cilostamide] | inactive: 2.8
59 | O=C(O)Cc1cc(I)c(Oc2ccc(O)c(I)c2)c(I)c1 | inactive: -1.07
60 | COc1cc(C(O)C(=O)O)ccc1O (racemic) [(±)-Vanillylmandelic acid] | inactive: 2.74
61 | COc1ccc2c(c1)O[C@H]1c3ccc(OC)cc3OC[C@@H]21 | inactive: 3.54
62 | O=C(O)CN(CCN(CC(=O)O)CC(=O)O)CCN(CC(=O)O)CC(=O)O [Pentetic Acid] | inactive: 2.69
63 | CCN(CC)CC(=O)Oc1ccc(NC(C)=O)cc1.Cl [Propacetamol Hydrochloride] | inactive: 0.645
64 | CCCCC(CC)CN1CN(CC(CC)CCCC)CC(C)(N)C1 (configuration not stated) | inactive: 2.59
65 | Cc1[nH]c2ccccc2c1CN(C)C | inactive: 3.27
66 | Nc1ccc2c3c(cccc13)C(=O)NC2=O [4-Amino-1,8-naphthalimide] | inactive: 6.55
67 | COc1ccc2nc3cc(Cl)ccc3c(Nc3cc(CN4CCCC4)c(O)c(CN4CCCC4)c3)c2n1.O=P(O)(O)O.O=P(O)(O)O.O=P(O)(O)O.O=P(O)(O)O | inactive: 1.48
68 | C#C[C@]1(O)CC[C@H]2[C@@H]3CCC4=CC(=O)CC[C@@H]4[C@H]3CC[C@@]21C [Norethindrone] | inactive: 3.68
69 | CC(C)CC(NC(=O)CN)C(=O)NC(Cc1ccccc1)C(=O)O (configuration not stated) | inactive: 2.73
70 | COc1cc2occc2c2oc(=O)ccc12 | inactive: 2.39
71 | N#Cc1c(Cl)c(Cl)c(Cl)c(C#N)c1Cl | inactive: 0.724
72 | CC[C@@H](C(=O)[C@@H](C)[C@@H](O)[C@H](C)[C@@H]1O[C@@H]([C@@H](CC)C(=O)[O-])CC[C@@H]1C)[C@H]1OC2(C=C[C@@H](O)[C@]3(CC[C@@](C)([C@H]4CC[C@](O)(CC)[C@H](C)O4)O3)O2)[C@H](C)C[C@@H]1C.[Na+] (some centres not stated) | inactive: -0.31
